# Source: paper PMC11714211
# Sequences of proteins named here, by UniProt entry; tags and fusion partners are left off. Residues count along the entry.
# UniProt Q9NZQ7, residues 19-290: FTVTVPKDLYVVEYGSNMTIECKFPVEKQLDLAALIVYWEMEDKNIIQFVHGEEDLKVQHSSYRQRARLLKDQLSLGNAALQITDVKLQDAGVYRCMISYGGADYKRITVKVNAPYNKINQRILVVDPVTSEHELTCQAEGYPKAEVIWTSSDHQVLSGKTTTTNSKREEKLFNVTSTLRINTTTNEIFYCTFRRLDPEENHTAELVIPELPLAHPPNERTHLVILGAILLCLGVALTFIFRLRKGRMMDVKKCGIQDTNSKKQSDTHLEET
# UniProt O43791: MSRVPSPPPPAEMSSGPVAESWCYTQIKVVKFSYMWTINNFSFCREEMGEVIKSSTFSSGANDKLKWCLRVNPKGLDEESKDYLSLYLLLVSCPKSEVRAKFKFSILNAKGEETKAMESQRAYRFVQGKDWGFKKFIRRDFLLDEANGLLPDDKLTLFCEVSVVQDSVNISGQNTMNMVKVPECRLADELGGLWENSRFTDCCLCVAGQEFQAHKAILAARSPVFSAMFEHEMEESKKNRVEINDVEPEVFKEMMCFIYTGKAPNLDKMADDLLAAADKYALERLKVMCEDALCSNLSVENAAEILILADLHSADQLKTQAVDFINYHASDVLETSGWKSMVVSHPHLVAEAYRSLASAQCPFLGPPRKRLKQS
# No constants are given. Whether binding was seen depends on the method and setting. Binding seen in cells or lysates may run through a third protein. Some results given as binding are weak or reduced against the parent protein; the word gives no strength.
# Molecular target: programmed cell death-ligand 1 (PD-L1) (UniProt Q9NZQ7)
# Test: co-IP; 293T cells transfected with PD-L1 plasmid and SPOP plasmid; cells lysed with IP cell lysis buffer with 1% protease inhibitor; lysate incubated with anti-FLAG beads overnight at 4°C, washed five times, immunoblot
substance,measurement,value
E3 ubiquitin ligase speckle-type zinc finger structural protein (SPOP) (from UniProt O43791 1-374) (enzyme),binding,binds
